The source of these data is article PMC4424349.

Results are given in words; binding and its absence hold for the method and conditions named. Binding seen in cells or lysates may run through a third protein. Tags and fused reporters may be left off the sequences shown.

The experiment has as its target T1, PfMyoB-GFP (Plasmodium falciparum myosin B with C-terminal GFP) (Plasmodium falciparum 3D7) (UniProt Q8I465).
T1 sequence: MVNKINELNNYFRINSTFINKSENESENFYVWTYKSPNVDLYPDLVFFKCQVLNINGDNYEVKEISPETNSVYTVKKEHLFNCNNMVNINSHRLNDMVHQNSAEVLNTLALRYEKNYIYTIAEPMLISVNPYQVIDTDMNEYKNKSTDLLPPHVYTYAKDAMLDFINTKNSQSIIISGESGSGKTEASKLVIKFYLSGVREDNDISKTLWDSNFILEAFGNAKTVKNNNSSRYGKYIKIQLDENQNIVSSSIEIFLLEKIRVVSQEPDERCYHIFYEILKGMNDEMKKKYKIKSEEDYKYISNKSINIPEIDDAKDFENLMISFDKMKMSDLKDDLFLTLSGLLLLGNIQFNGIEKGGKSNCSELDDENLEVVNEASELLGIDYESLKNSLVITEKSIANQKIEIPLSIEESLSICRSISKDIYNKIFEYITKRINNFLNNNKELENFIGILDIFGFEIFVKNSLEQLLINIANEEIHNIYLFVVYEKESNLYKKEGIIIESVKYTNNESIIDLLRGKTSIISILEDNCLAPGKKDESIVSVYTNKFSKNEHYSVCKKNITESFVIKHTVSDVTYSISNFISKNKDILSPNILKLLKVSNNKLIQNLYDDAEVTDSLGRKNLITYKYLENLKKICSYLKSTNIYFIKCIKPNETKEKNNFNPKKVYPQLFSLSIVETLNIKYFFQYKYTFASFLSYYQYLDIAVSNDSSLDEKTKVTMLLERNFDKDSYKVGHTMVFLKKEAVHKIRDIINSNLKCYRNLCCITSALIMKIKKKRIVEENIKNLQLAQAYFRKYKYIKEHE
Put plainly: co-IP; GFP-Trap agarose beads on schizont lysates (0.5% Nonidet P-40, 150 mM NaCl, 10 mM Tris-HCl pH 7.5, diluted to 0.2% detergent), 2 h at 4 °C, washes with 150 mM and 300 mM NaCl; Western blot with anti-GFP, anti-GAP50, anti-GAP45, anti-MTIP; 3D7 lysate as control. Background: Immunoblotting shows a protein as a band on a membrane.

On to “glideosome-associated protein 50 (GAP50)”, for which the binding result was “no binding”.
